Measurements reported in PubChem BioAssay AID743121 (NCATS, 2013)

- Assay: 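Partners whose loss is lethal together with topoisomerase I blockade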 (primary screen)
- System: MDA-MB-231 cells, a human breast cancer line
- Reagents: single siRNA against human genes, 20 nM siRNA (0.8 pmol per well)
- Time to read-out: 120 h (drug added 48 h after transfection, read 72 h later)
- Treatment: camptothecin 20 nM (about EC30) for 72 h; vehicle 0.1% DMSO in parallel plates
- Detection: 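CellTiter-Glo ATP signal, scaled to control siRNA as percent viability; sensitisation given as log2 of untreated divided by camptothecin-treated viability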
- Scale: log2 vehicle/camptothecin viability: higher = stronger sensitisation to camptothecin; viability with camptothecin and viability without drug: higher = more viable cells
- Call rule: 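Active genes have an RSA gene-level p-value below 0.001, computed from the ratios of their separate siRNAs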
The whole screen tested about 26,000 reagents; this is a random part of them. Of all reagents, 167 (0.63%) are marked active. 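Calls are per gene from RSA p-values that are not deposited; an individual active-marked siRNA can sensitise only weakly.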 The numbers tell different reagents against one gene apart.

The first 5 entries, to show the layout:
Gene	reagent	log2 vehicle/camptothecin viability	viability with camptothecin (% of control)	viability without drug (% of control)	call
TRHDE (thyrotropin releasing hormone degrading enzyme)	1	0.155	89.6	99.7	inactive
TRHDE (thyrotropin releasing hormone degrading enzyme)	2	-0.0219	58.2	57.3	inactive
TRHDE (thyrotropin releasing hormone degrading enzyme)	3	-0.244	100	84.4	inactive
TRHDE (thyrotropin releasing hormone degrading enzyme)	4	0.202	61.8	71	inactive
HSD11B1L (hydroxysteroid 11-beta dehydrogenase 1 like)	1	-0.321	97.9	78.3	inactive

Main list, repeating the preview:
Gene	reagent	log2 vehicle/camptothecin viability	viability with camptothecin (% of control)	viability without drug (% of control)	call
TRHDE (thyrotropin releasing hormone degrading enzyme)	1	0.155	89.6	99.7	inactive
TRHDE (thyrotropin releasing hormone degrading enzyme)	2	-0.0219	58.2	57.3	inactive
TRHDE (thyrotropin releasing hormone degrading enzyme)	3	-0.244	100	84.4	inactive
TRHDE (thyrotropin releasing hormone degrading enzyme)	4	0.202	61.8	71	inactive
HSD11B1L (hydroxysteroid 11-beta dehydrogenase 1 like)	1	-0.321	97.9	78.3	inactive
HSD11B1L (hydroxysteroid 11-beta dehydrogenase 1 like)	2	0.0539	70.1	72.7	inactive
HSD11B1L (hydroxysteroid 11-beta dehydrogenase 1 like)	3	-0.316	99.6	80	inactive
HSD11B1L (hydroxysteroid 11-beta dehydrogenase 1 like)	4	-0.0792	73.9	69.9	inactive
OR1A2 (olfactory receptor family 1 subfamily A member 2)	1	0.749	24.9	41.9	active
OR1A2 (olfactory receptor family 1 subfamily A member 2)	2	0.283	39.3	47.8	active
OR1A2 (olfactory receptor family 1 subfamily A member 2)	3	0.386	61.2	80	active
OR1A2 (olfactory receptor family 1 subfamily A member 2)	4	0.491	32.8	46.2	active
TRIM49 (tripartite motif containing 49)	1	-0.51	117	82.3	inactive
TRIM49 (tripartite motif containing 49)	2	-0.0356	105	103	inactive
TRIM49 (tripartite motif containing 49)	3	-0.238	57.1	48.4	inactive
TRIM49 (tripartite motif containing 49)	4	-0.32	111	88.8	inactive
BPIFB6 (BPI fold containing family B member 6)	1	0.967	41.1	80.3	inactive
BPIFB6 (BPI fold containing family B member 6)	2	-0.869	52.9	29	inactive
BPIFB6 (BPI fold containing family B member 6)	3	-0.229	74.9	63.9	inactive
UGGT1 (UDP-glucose glycoprotein glucosyltransferase 1)	1	-0.0233	87.3	85.9	inactive
UGGT1 (UDP-glucose glycoprotein glucosyltransferase 1)	2	-0.0161	84.9	84	inactive
UGGT1 (UDP-glucose glycoprotein glucosyltransferase 1)	3	-0.448	36.3	26.6	inactive
KCNH7 (potassium voltage-gated channel subfamily H member 7)	1	0.0349	84.4	86.5	inactive
KCNH7 (potassium voltage-gated channel subfamily H member 7)	2	0.822	10.3	18.2	inactive
KCNH7 (potassium voltage-gated channel subfamily H member 7)	3	-0.0376	100	97.9	inactive
KCNH7 (potassium voltage-gated channel subfamily H member 7)	4	0.254	36.6	43.6	inactive
C1RL (complement C1r subcomponent like)	1	-0.00815	93.8	93.3	inactive
C1RL (complement C1r subcomponent like)	2	-0.223	97.4	83.4	inactive
C1RL (complement C1r subcomponent like)	3	-0.186	78.3	68.9	inactive
C1RL (complement C1r subcomponent like)	4	-0.0618	42.6	40.8	inactive
ASB6 (ankyrin repeat and SOCS box containing 6)	1	0.558	44.7	65.9	inactive
ASB6 (ankyrin repeat and SOCS box containing 6)	2	0.0313	82.3	84.1	inactive
ASB6 (ankyrin repeat and SOCS box containing 6)	3	0.0899	90.7	96.5	inactive
ASB6 (ankyrin repeat and SOCS box containing 6)	4	0.459	55.3	76.1	inactive
AQP4 (aquaporin 4)	1	-0.505	77.7	54.8	inactive
AQP4 (aquaporin 4)	2	-0.475	66.8	48	inactive
AQP4 (aquaporin 4)	3	-0.088	40.1	37.7	inactive
AQP4 (aquaporin 4)	4	-0.118	36.9	34	inactive
RGS8 (regulator of G protein signaling 8)	1	-0.125	115	105	inactive
RGS8 (regulator of G protein signaling 8)	2	-0.301	128	104	inactive
RGS8 (regulator of G protein signaling 8)	3	0.0708	61.4	64.5	inactive
RGS8 (regulator of G protein signaling 8)	4	-0.0447	94.2	91.3	inactive
WNT7A (Wnt family member 7A)	1	-0.0757	88.4	83.9	inactive
WNT7A (Wnt family member 7A)	2	-0.341	42.4	33.5	inactive
WNT7A (Wnt family member 7A)	3	-0.256	103	86.5	inactive
WNT7A (Wnt family member 7A)	4	0.122	85.9	93.5	inactive
DKC1 (dyskerin pseudouridine synthase 1)	1	-0.268	92.1	76.5	inactive
DKC1 (dyskerin pseudouridine synthase 1)	2	-0.785	95.4	55.4	inactive
DKC1 (dyskerin pseudouridine synthase 1)	3	-0.395	99.6	75.8	inactive
DKC1 (dyskerin pseudouridine synthase 1)	4	-0.341	83.3	65.8	inactive
GCLM (glutamate-cysteine ligase modifier subunit)	1	-0.0511	84.8	81.8	inactive
GCLM (glutamate-cysteine ligase modifier subunit)	2	-0.216	67.7	58.3	inactive
GCLM (glutamate-cysteine ligase modifier subunit)	3	0.334	79.5	100	inactive
GCLM (glutamate-cysteine ligase modifier subunit)	4	0.013	69.7	70.3	inactive
RBCK1 (RANBP2-type and C3HC4-type zinc finger containing 1)	1	-0.224	35.9	30.7	inactive
RBCK1 (RANBP2-type and C3HC4-type zinc finger containing 1)	2	0.0571	18.9	19.7	inactive
RBCK1 (RANBP2-type and C3HC4-type zinc finger containing 1)	3	-0.0725	90.6	86.1	inactive
CDK8 (cyclin dependent kinase 8)	1	0.261	26.7	32.1	inactive
CDK8 (cyclin dependent kinase 8)	2	-0.422	62.1	46.3	inactive
CDK8 (cyclin dependent kinase 8)	3	0.0639	64.9	67.8	inactive
CDK8 (cyclin dependent kinase 8)	4	-0.415	78.1	58.6	inactive
AFF2 (ALF transcription elongation factor 2)	1	-0.197	69	60.2	inactive
AFF2 (ALF transcription elongation factor 2)	2	0.0441	57.7	59.5	inactive
AFF2 (ALF transcription elongation factor 2)	3	1.7	16.5	53.8	inactive
AFF2 (ALF transcription elongation factor 2)	4	-0.27	41.9	34.8	inactive
PITX3 (paired like homeodomain 3)	1	-0.105	67.6	62.9	inactive
PITX3 (paired like homeodomain 3)	2	-0.00508	56.6	56.4	inactive
PITX3 (paired like homeodomain 3)	3	-0.598	83.1	54.9	inactive
